PMC5722644

Chains of the proteins cited; added tags and fusions are not shown. Lines headed by an entry give the natural chain unless they say otherwise; changes in a name come on top. Residues count along the entry.
UniProt P10659: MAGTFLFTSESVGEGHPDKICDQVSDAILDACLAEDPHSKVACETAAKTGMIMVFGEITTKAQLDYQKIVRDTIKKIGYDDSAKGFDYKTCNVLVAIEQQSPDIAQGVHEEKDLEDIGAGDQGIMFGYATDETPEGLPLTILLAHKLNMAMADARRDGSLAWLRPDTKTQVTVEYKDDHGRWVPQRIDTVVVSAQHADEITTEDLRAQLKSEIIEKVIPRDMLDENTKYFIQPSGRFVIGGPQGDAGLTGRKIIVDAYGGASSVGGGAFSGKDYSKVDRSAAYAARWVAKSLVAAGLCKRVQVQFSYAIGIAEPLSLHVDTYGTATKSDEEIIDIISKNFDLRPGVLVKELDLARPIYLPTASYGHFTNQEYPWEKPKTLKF
UniProt P0CX41: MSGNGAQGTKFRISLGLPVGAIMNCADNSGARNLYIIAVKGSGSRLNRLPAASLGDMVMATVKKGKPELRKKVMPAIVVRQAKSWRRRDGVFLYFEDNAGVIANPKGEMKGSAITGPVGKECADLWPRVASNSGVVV
UniProt P05756: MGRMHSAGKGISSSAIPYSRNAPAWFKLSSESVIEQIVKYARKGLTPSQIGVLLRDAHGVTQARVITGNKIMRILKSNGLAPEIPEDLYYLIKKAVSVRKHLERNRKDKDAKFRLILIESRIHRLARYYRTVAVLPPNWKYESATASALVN
UniProt Q01939: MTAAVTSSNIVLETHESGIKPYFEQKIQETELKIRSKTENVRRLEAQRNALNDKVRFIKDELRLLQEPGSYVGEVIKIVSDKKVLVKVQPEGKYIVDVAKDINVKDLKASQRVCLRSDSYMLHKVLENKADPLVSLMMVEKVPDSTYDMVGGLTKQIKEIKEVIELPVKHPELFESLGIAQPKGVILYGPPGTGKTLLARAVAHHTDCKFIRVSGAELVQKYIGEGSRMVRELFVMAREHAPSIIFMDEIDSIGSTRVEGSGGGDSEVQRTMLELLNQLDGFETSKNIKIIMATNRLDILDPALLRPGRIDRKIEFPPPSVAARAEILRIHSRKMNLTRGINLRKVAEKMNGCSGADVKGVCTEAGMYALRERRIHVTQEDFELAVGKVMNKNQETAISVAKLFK
UniProt Q3E792: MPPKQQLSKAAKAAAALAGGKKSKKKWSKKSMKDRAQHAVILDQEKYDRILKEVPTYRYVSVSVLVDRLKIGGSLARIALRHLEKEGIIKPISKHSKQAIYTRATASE
UniProt P36105: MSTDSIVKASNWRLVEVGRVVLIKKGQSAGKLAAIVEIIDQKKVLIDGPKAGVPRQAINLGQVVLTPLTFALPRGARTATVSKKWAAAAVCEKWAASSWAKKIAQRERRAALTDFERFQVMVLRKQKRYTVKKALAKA
UniProt P02994: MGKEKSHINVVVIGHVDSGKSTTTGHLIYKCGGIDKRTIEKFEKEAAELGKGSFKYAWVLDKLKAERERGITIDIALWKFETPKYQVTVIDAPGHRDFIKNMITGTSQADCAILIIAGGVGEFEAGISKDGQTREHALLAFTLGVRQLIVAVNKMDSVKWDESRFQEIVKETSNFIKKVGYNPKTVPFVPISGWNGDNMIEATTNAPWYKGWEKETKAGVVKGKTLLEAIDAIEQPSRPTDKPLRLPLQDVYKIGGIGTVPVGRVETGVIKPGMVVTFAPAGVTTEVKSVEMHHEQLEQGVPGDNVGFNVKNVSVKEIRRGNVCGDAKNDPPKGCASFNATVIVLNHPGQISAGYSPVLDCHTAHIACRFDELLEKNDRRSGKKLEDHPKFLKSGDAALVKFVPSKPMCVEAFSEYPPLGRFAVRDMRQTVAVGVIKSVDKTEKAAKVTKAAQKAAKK
UniProt P05743: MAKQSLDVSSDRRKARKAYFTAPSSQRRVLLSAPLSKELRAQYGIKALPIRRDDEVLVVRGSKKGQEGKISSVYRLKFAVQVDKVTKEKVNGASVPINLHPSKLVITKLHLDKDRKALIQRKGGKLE
UniProt P02407: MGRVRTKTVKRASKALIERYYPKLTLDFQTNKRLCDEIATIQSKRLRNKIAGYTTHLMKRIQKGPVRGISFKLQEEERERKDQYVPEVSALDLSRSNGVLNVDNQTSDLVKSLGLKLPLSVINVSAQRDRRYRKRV
UniProt P07280: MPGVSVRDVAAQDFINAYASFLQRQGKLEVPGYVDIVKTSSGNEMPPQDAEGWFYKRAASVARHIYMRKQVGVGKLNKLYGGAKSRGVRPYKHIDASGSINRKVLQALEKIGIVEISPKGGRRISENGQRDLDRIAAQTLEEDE
UniProt P0CS90, residues 24-654: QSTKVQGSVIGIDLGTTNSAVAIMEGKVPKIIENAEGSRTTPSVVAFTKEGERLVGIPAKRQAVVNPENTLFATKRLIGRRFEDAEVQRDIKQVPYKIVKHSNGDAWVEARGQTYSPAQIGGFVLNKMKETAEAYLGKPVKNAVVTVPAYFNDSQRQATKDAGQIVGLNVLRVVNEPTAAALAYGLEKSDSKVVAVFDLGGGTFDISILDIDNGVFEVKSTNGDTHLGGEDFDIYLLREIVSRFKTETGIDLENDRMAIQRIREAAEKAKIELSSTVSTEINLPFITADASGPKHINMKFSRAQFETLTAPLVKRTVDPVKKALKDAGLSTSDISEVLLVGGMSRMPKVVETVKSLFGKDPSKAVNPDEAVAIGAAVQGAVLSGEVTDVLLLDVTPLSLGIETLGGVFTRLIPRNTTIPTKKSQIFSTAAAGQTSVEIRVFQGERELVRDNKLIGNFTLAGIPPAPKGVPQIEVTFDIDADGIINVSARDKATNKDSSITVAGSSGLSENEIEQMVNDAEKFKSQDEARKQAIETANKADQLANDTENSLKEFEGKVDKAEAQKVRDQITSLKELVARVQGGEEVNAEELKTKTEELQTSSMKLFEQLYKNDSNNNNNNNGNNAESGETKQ
UniProt P05744: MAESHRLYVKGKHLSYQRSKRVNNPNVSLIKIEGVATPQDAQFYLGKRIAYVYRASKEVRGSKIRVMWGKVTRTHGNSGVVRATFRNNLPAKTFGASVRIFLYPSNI
UniProt P14126: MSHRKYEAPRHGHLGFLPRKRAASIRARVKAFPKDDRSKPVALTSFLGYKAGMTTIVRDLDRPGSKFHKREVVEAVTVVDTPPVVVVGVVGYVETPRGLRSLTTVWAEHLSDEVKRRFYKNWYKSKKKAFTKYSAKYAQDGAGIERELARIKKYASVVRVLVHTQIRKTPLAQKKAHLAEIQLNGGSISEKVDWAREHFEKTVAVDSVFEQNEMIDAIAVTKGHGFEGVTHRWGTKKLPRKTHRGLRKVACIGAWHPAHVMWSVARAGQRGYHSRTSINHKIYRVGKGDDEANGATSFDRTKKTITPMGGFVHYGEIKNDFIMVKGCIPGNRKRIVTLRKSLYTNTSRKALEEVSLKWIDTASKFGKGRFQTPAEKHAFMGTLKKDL

T1: FLAG-tagged Drosophila spartin (Drosophila) (UniProt Q9VN45)
T1 sequence: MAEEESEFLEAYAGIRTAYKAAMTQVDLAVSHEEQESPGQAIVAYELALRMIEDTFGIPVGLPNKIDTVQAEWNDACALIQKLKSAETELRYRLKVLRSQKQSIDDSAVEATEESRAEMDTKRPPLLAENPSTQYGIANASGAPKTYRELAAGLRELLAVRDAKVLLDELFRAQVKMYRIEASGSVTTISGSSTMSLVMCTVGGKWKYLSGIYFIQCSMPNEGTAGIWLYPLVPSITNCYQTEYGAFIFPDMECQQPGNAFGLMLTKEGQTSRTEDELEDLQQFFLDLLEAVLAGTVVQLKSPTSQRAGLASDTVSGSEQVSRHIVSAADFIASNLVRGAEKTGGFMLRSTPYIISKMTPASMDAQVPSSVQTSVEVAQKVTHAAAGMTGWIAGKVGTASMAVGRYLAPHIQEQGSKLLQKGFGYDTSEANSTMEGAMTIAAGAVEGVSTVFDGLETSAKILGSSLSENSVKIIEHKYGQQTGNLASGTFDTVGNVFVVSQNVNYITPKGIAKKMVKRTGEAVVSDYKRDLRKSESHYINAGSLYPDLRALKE

B1: Bio3 (enzyme, UniProt P50277 1-480)
chain: MSQEISYTPDVAELLDFDKKHIWHPYTSLSSPLNVYPVKSAHGCKLVLDTDSPVDVEVIDAMSSWWCVIHGYNNPELNEALTKQMLKFSHVLLGGFTHKGAVNLVQKLLKVIDEPSLQYCFLADSGSVAVEVALKMALQSNMSGEATKNRTKFLTIKNGYHGDTFGAMSVCDPENSMHHIYNDRLSENIFAQAPSIVDGLPTSQNGFEDHWNAEEVTDLKKQFELHSDKICAVILEPILQGAGGLRPYHPQFLIEVQKLCNQYDVLFIMDEIATGFGRTGEIFAFKHCQKYQDQHGISPSDQIKVVPDILCVGKGLTSGYMTMSAVVVNDKVASRISSPNSPTGGCFMHGPTFMGNALACSVAEKSMDILLRGEWRKQVSAIENQIYRELYQYIKNPDNGLIGTVVKRVSVIGAVGIVELYKKTDPEWFQKKFISKGVHIRPFNCLCYIMPPYVITTEELTKVNQVLIEVLHEWKSHINQ
B2: Ctr9 (protein, UniProt P89105 1-1077)
chain: MTNAMKVEGYPSMEWPTSLDIPLKASEELVGIDLETDLPDDPTDLKTLLVEENSEKEHWLTIALAYCNHGKTNEGIKLIEMALDVFQNSERASLHTFLTWAHLNLAKGQSLSVETKEHELTQAELNLKDAIGFDPTWIGNMLATVELYYQRGHYDKALETSDLFVKSIHAEDHRSGRQSKPNCLFLLLRAKLLYQKKNYMASLKIFQELLVINPVLQPDPRIGIGLCFWQLKDSKMAIKSWQRALQLNPKNTSASILVLLGEFRESFTNSTNDKTFKEAFTKALSDLNNIFSENQHNPVLLTLLQTYYYFKGDYQTVLDIYHHRILKMSPMIAKIVLSESSFWCGRAHYALGDYRKSFIMFQESLKKNEDNLLAKLGLGQTQIKNNLLEESIITFENLYKTNESLQELNYILGMLYAGKAFDAKTAKNTSAKEQSNLNEKALKYLERYLKLTLATKNQLVISRAYLVISQLYELQNQYKTSLDYLSKALEEMEFIKKEIPLEVLNNLACYHFINGDFIKADDLFKQAKAKVSDKDESVNITLEYNIARTNEKNDCEKSESIYSQVTSLHPAYIAARIRNLYLKFAQSKIEDSDMSTEMNKLLDLNKSDLEIRSFYGWYLKNSKERKNNEKSTTHNKETLVKYNSHDAYALISLANLYVTIARDGKKSRNPKEQEKSKHSYLKAIQLYQKVLQVDPFNIFAAQGLAIIFAESKRLGPALEILRKVRDSLDNEDVQLNLAHCYLEMREYGKAIENYELVLKKFDNEKTRPHILNLLGRAWYARAIKERSVNFYQKALENAKTALDLFVKESSKSKFIHSVKFNIALLHFQIAETLRRSNPKFRTVQQIKDSLEGLKEGLELFRELNDLKEFNMIPKEELEQRIQLGETTMKSALERSLNEQEEFEKEQSAKIDEARKILEENELKEQGWMKQEEEARRLKLEKQAEEYRKLQDEAQKLIQEREAMAISEHNVKDDSDLSDKDNEYDEEKPRQKRKRSTKTKNSGESKRRKAAKKTLSDSDEDDDDVVKKPSHNKGKKSQLSNEFIEDSDEEEAQMSGSEQNKNDDNDENNDNDDNDGLF
B3: mitochondrial external NADH dehydrogenase Nde1 (enzyme, UniProt P40215 42-560)
chain: EDKKVILQKVAPTTGVVAKQSFFKRTGKFTLKALLYSALAGTAYVSYSLYREANPSTQVPQSDTFPNGSKRKTLVILGSGWGSVSLLKNLDTTLYNVVVVSPRNYFLFTPLLPSTPVGTIELKSIVEPVRTIARRSHGEVHYYEAEAYDVDPENKTIKVKSSAKNNDYDLDLKYDYLVVGVGAQPNTFGTPGVYEYSSFLKEISDAQEIRLKIMSSIEKAASLSPKDPERARLLSFVVVGGGPTGVEFAAELRDYVDQDLRKWMPELSKEIKVTLVEALPNILNMFDKYLVDYAQDLFKEEKIDLRLKTMVKKVDATTITAKTGDGDIENIPYGVLVWATGNAPREVSKNLMTKLEEQDSRRGLLIDNKLQLLGAKGSIFAIGDCTFHPGLFPTAQVAHQEGEYLAQYFKKAYKIDQLNWKMTHAKDDSEVARLKNQIVKTQSQIEDFKYNHKGALAYIGSDKAIADLAVGEAKYRLAGSFTFLFWKSAYLAMCLSFRNRVLVAMDWAKVYFLGRDSSI
B4: acetolactate synthase Ilv2 (enzyme, UniProt P07342 91-687)
chain: GLTGGQIFNEMMSRQNVDTVFGYPGGAILPVYDAIHNSDKFNFVLPKHEQGAGHMAEGYARASGKPGVVLVTSGPGATNVVTPMADAFADGIPMVVFTGQVPTSAIGTDAFQEADVVGISRSCTKWNVMVKSVEELPLRINEAFEIATSGRPGPVLVDLPKDVTAAILRNPIPTKTTLPSNALNQLTSRAQDEFVMQSINKAADLINLAKKPVLYVGAGILNHADGPRLLKELSDRAQIPVTTTLQGLGSFDQEDPKSLDMLGMHGCATANLAVQNADLIIAVGARFDDRVTGNISKFAPEARRAAAEGRGGIIHFEVSPKNINKVVQTQIAVEGDATTNLGKMMSKIFPVKERSEWFAQINKWKKEYPYAYMEETPGSKIKPQTVIKKLSKVANDTGRHVIVTTGVGQHQMWAAQHWTWRNPHTFITSGGLGTMGYGLPAAIGAQVAKPESLVIDIDGDASFNMTLTELSSAVQAGTPVKILILNNEEQGMVTQWQSLFYEHRYSHTHQLNPDFIKLAEAMGLKGLRVKKQEELDAKLKEFVSTKGPVLLEVEVDKKVPVLPMVAGGSGLDEFINFDPEVERQQTELRHKRTGGKH
B5: Cdc73 (protein, UniProt Q06697 1-393)
chain: MANSLDRLREHLKNGDKLVLKNNEGQSTDDITKATMVETLSSDGSTQDSFPLNEETEIEIDGSLVQLRIIVHCWMNKDSSAADYLADCQNKQLTNVSFLQRTDLINWLSGNTESSQYLKAPGQKGETSDKVDIENKTLAGELSTVKSTTSASLENDSEVSDPVVVETMKHERILVDHNSALRGAKPINFGYLIKDAELKLVQSIKGSLRGSKLPPGHKGAHGRISKTNGSSGGPRKDPIILIPSAASSILTVANIKQFLLESKYVNPRNLPSVPNGLVNIEKNFERISRPIRFIIVDNTRMFTKPEYWDRVVAIFTTGHTWQFNNYQWNSPQELFQRCKGYYFHFAGDSVPQHVQQWNVEKVELDKNKRFKDVEVVRYFWHSLEKELISRGYR
B6: Rpn5 (protein, UniProt Q12250 1-445)
chain: MSRDAPIKADKDYSQILKEEFPKIDSLAQNDCNSALDQLLVLEKKTRQASDLASSKEVLAKIVDLLASRNKWDDLNEQLTLLSKKHGQLKLSIQYMIQKVMEYLKSSKSLDLNTRISVIETIRVVTENKIFVEVERARVTKDLVEIKKEEGKIDEAADILCELQVETYGSMEMSEKIQFILEQMELSILKGDYSQATVLSRKILKKTFKNPKYESLKLEYYNLLVKISLHKREYLEVAQYLQEIYQTDAIKSDEAKWKPVLSHIVYFLVLSPYGNLQNDLIHKIQNDNNLKKLESQESLVKLFTTNELMRWPIVQKTYEPVLNEDDLAFGGEANKHHWEDLQKRVIEHNLRVISEYYSRITLLRLNELLDLTESQTETYISDLVNQGIIYAKVNRPAKIVNFEKPKNSSQLLNEWSHNVDELLEHIETIGHLITKEEIMHGLQAK
B7: Tef4 (protein, UniProt P36008 1-412)
chain: MSQGTLYINRSPRNYASEALISYFKLDVKIVDLEQSSEFASLFPLKQAPAFLGPKGLKLTEALAIQFYLANQVADEKERARLLGSDVIEKSQILRWASLANSDVMSNIARPFLSFKGLIPYNKKDVDACFVKIDNLAAVFDARLRDYTFVATENISLGDLHAAGSWAFGLATILGPEWRAKHPHLMRWFNTVAASPIVKTPFAEVKLAEKALTYTPPKKQKAEKPKAEKSKAEKKKDEAKPADDAAPAKKPKHPLEALGKSTFVLDDWKRKYSNDDTRPVALPWFWEHYNPEEYSIWKVGYKYNDELTLTFMSNNLVGGFFNRLSASTKYMFGCLVVYGENNNNGIVGAVMVRGQDFAPAFDVAPDWESYEYTKLDPTKEEDKEFVNNMWAWDKPVVVNGEDKEIVDGKVLK

Target: T1, FLAG-tagged Drosophila spartin (Drosophila)
Test: affinity purification with mass spectrometry; whole-cell extracts of yeast expressing FLAG-tagged Drosophila spartin (vector control beside it) on anti-FLAG M2 agarose beads; eluates on Tricine-SDS-PAGE, lanes cut into slices, in-gel trypsin digest, LC-MS/MS

binding | Molecule
binds | Sam1 (from UniProt P10659 1-382) (enzyme)
binds | Rpl23 (from UniProt P0CX41 1-137)
binds | Rtf1 (from UniProt P53064 1-558)
binds | Rps13 (from UniProt P05756 1-151)
binds | Rpt6 (from UniProt Q01939 1-405)
binds | Rps25 (from UniProt Q3E792)
binds | Rpl14 (from UniProt P36105)
binds | Tef2 (from UniProt P02994 1-458)
binds | Rpl26 (from UniProt P05743)
binds | Rps17 (from UniProt P02407)
binds | Rps19 (from UniProt P07280)
binds | Ssc1 (from UniProt P0CS90 24-654)
binds | Rpl33 (from UniProt P05744)
binds | Rpl3 (from UniProt P14126 1-387)
binds | Hsp82/Hsc82 (S. cerevisiae (endogenous in BY4741))
binds | B1
binds | B2
binds | B3
binds | B4
binds | B5
binds | B6
binds | B7

Results are given in words; binding and its absence hold for the method and conditions named. In cells and extracts the contact can be indirect. These calls come from enrichment with a bait or labelling near it, and not all partners need be listed. Where a sequence is shown, tags or fusion partners need not be part of it.
